{
  "source": "PubChem BioAssay AID1347076",
  "about": "(National Center for Advancing Translational Sciences (NCATS), 2019)",
  "note": "Screen size: about 400,000 compounds; about 13,000 (3.2%) were called active. This list was built around the results that the source calls inconclusive (neither active nor inactive); the mix of calls is not that of the screen. The call rests on the fitted dose curve; in most records, active means well fitted cell-killing curve with a large enough effect; inconclusive means small, poorly fitted or top-dose-only effect, or effect the other way; inactive means flat fitted curve, though single readings scatter. Potencies beside an inconclusive call are fits to weak or partial responses and may not hold up. Potency means the concentration at half of the fitted maximal effect.",
  "data": [
    {"test": "qHTS assay for MDR1-selective chemotherapeutics: Primary screen using the drug-selected MDR subline cells KB-V1; further: nearly all actives have a fitted effect of over 60% in size", "details": "KB-V1 MDR cells viability, CellTiter-Glo, 72 h; series mostly up to 46.1 µM", "how_it_was_run": "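qHTS viability screen in drug-selected KB-V1 MDR cells: 72 h compound treatment at 37 degrees C, ATP luminescence end point.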", "values": [
      {"smiles": "Cc1ccc(NC(=O)c2ccc(=O)[nH]n2)cc1C", "Potency": "inconclusive: 18.4 µM [cytotoxic, single point]"},
      {"smiles": "Cc1cc(C(=O)N/N=C/c2ccc3c(c2)OCO3)c(C)n1-c1ccc(F)cc1", "Potency": "inactive"},
      {"smiles": "COc1ccc(-c2nc(=S)c3ccc4ccccc4c3[nH]2)cc1", "Potency": "inactive"},
      {"smiles": "O=C(NCC1CCCO1)C1CCCN(c2ncccn2)C1", "note": "(configuration not stated)", "Potency": "inconclusive: 10.3 µM [cytotoxic, partial curve, poor fit]"},
      {"smiles": "COc1ccc(/C=C2\\CCn3c2nc2ccccc2c3=O)cc1OC", "Potency": "inactive"},
      {"smiles": "CCC1CCCCN1S(=O)(=O)c1ccc(S(=O)(=O)N(Cc2cccs2)C2CC2)cc1", "note": "(configuration not stated)", "Potency": "inconclusive: 9.2 µM [cytotoxic, partial curve]"},
      {"smiles": "Cc1ccc(-c2cn(-c3cccc(Cl)c3)c(S(=O)(=O)CC(=O)Nc3ccccc3F)n2)cc1", "Potency": "inactive"},
      {"smiles": "NS(=O)(=O)c1ccc(NC(=O)Nc2ccc(S(N)(=O)=O)cc2)cc1", "Potency": "inconclusive: 20.6 µM [rising, single point]"},
      {"smiles": "CC(C)C(=O)Nc1ccc(C(=O)c2ccccc2)cc1", "Potency": "active: 13 µM"},
      {"smiles": "COc1ccc(OC)c(NC(=O)NC2CCCc3ccccc32)c1", "note": "(configuration not stated)", "Potency": "inconclusive: 2.91 µM [cytotoxic, partial curve, poor fit]"},
      {"smiles": "Cc1ccc(-c2nc3ncccc3o2)cc1NC(=O)c1ccc(-c2ccc(Cl)cc2)o1", "Potency": "inactive"},
      {"smiles": "Cc1ccc(N(Cc2cccs2)C(=O)c2ccccc2Cl)cc1", "Potency": "inactive"},
      {"smiles": "CCc1nnc(NC(=O)CSc2ncnc3scc(-c4ccc(C)cc4)c23)s1", "Potency": "active: 6.51 µM"},
      {"smiles": "CCCC(c1nnnn1CC1CCCO1)N1CCN(c2cc(Cl)ccc2C)CC1", "note": "(configuration not stated)", "Potency": "inconclusive: 1.46 µM [cytotoxic, single point]"},
      {"smiles": "O=C1NC[C@H](CCCCN2CCN(CC3CCCCC3)C(=O)C2=O)N(CCC2CCCCC2)C1=O", "Potency": "inactive"},
      {"smiles": "Cc1occc(=O)c1O", "Potency": "inactive"},
      {"smiles": "Cc1ccc(C)c(S(=O)(=O)N(C)c2ccc(OC(=O)CN3C(=O)NC4(CCCC4)C3=O)cc2)c1", "Potency": "inactive"},
      {"smiles": "CCOc1ccccc1NC(=O)C(C)CC", "note": "(configuration not stated)", "Potency": "inconclusive: 23.1 µM [rising, single point]"},
      {"smiles": "O=C(CSC1CC(=O)N(CC(c2ccccc2)c2ccccc2)C1=O)Nc1ccc(Cl)cc1", "note": "(configuration not stated)", "Potency": "inconclusive: 29.1 µM [cytotoxic, single point]"},
      {"smiles": "O=C1CC(N(Cc2cccs2)C(=O)Nc2ccccc2)C(=O)N1c1ccc(Cl)cc1", "note": "(configuration not stated)", "Potency": "active: 18.4 µM"},
      {"smiles": "CC1=CC(C)(C)N(C(=O)CSc2nnc(C)s2)c2ccc(C)cc21", "Potency": "inconclusive: 9.2 µM [cytotoxic, partial curve]"},
      {"smiles": "CCOC(=O)CNC(=O)c1sc2ncnc(N3CCc4ccccc4C3)c2c1C", "Potency": "active: 14.6 µM"},
      {"smiles": "COc1cccc(NS(=O)(=O)c2ccc3c(c2)CCCN3C(C)=O)c1", "Potency": "active: 20.6 µM"},
      {"smiles": "Cc1[nH]n(-c2ccc([N+](=O)[O-])cc2)c(=O)c1C=NCCN1CCN(C(=O)c2ccc(F)cc2)CC1", "Potency": "inactive"},
      {"smiles": "CC(=O)Nc1ccc(N(CC(O)Cn2c3ccccc3c3ccccc32)S(=O)(=O)c2ccc(C)cc2)cc1", "note": "(configuration not stated)", "Potency": "inconclusive: 14.6 µM [cytotoxic, partial curve, poor fit]"},
      {"smiles": "O=C(NC1CCCCCC1)c1c(F)c(F)c(F)c(F)c1F", "Potency": "inactive"},
      {"smiles": "CC(=O)c1c(C)oc2ccc(N(C(C)=O)S(=O)(=O)c3ccc(Br)cc3)cc12", "Potency": "inconclusive: 23.1 µM [cytotoxic, single point]"},
      {"smiles": "CSc1nc(Sc2ccccc2Cl)c2ccccc2n1", "Potency": "inconclusive: 25.9 µM [cytotoxic, single point]"},
      {"smiles": "CCCS(=O)(=O)NC(=O)C1(C)CCCN(C(=O)c2cccs2)C1", "note": "(configuration not stated)", "Potency": "inactive"},
      {"smiles": "COC(=O)c1c(C)[nH]c(C(=O)C(C)OC(=O)C2CC(=O)N(CCc3ccccc3)C2)c1C", "note": "(configuration not stated)", "Potency": "inconclusive: 13 µM [cytotoxic, partial curve, poor fit]"},
      {"smiles": "CC(=O)c1ccc(NC(=O)Cn2c(=O)oc3ccccc32)cc1", "Potency": "inconclusive: 1.3 µM [rising, full curve]"},
      {"smiles": "CC1=C(C)CS(=O)N(S(=O)(=O)c2ccccc2)C1", "note": "(configuration not stated)", "Potency": "inconclusive: 20.6 µM [cytotoxic, single point]"},
      {"smiles": "Cc1cccc(N(C(=O)c2snc(C(N)=O)c2N)C(C)C(=O)NCC2CCCO2)c1", "note": "(configuration not stated)", "Potency": "inconclusive: 29.1 µM [cytotoxic, single point]"},
      {"smiles": "Clc1cccc(N/N=C(\\Cc2nc3ccccc3[nH]2)c2ccccc2)c1", "Potency": "active: 20.6 µM"},
      {"smiles": "O=[N+]([O-])c1ccc(/C=N\\N2CCN(c3ccc(Cl)cc3)CC2)cc1", "Potency": "inconclusive: 29.1 µM [rising, single point]"},
      {"smiles": "CCS(=O)(=O)NCC(c1ccco1)N1CCN(c2ccccc2F)CC1", "note": "(configuration not stated)", "Potency": "inconclusive: 18.4 µM [cytotoxic, single point]"},
      {"smiles": "C=CCSc1cc(C)nc2c(-c3ccc(Cl)cc3)c(C)nn12", "Potency": "inconclusive: 29.1 µM [cytotoxic, single point]"},
      {"smiles": "S=C(N/N=C/c1ccccc1Cl)Nc1cccc(Cl)c1Cl", "Potency": "inconclusive: 25.9 µM [cytotoxic, partial curve, poor fit]"},
      {"smiles": "CSc1ccccc1C(=O)C1CCCN(S(=O)(=O)c2c(C)noc2C)C1", "note": "(configuration not stated)", "Potency": "inconclusive: 6.51 µM [cytotoxic, partial curve]"},
      {"smiles": "CSCC[C@H](NC(=O)c1cc2c([nH]c3ccccc32)c(-c2ccccc2)n1)C(=O)O", "Potency": "inactive"},
      {"smiles": "C(=N\\Nc1nc2ccccc2[nH]1)/c1ccncc1", "Potency": "inactive"},
      {"smiles": "O=C(Nc1ccc(Cl)c(C(F)(F)F)c1)C(Cc1ccccc1)NS(=O)(=O)c1ccc(Br)s1", "note": "(configuration not stated)", "Potency": "inactive"},
      {"smiles": "COc1ccccc1CNS(=O)(=O)c1cc(C(=O)N(C)Cc2cccnc2)c(Cl)cc1Cl", "Potency": "active: 5.17 µM"},
      {"smiles": "COC(=O)c1ccc(SCC(=O)N2CCC(C)CC2)c([N+](=O)[O-])c1", "Potency": "active: 14.6 µM"},
      {"smiles": "CCC(C)(C)n1nnnc1C(c1ccccc1OC)N1CCN(C(=O)c2ccco2)CC1", "note": "(configuration not stated)", "Potency": "inconclusive: 2.91 µM [cytotoxic, partial curve, poor fit]"},
      {"smiles": "CN(CCOc1ccccc1)C(=S)Nc1ccc(OC(F)F)cc1", "Potency": "inactive"},
      {"smiles": "CCOc1ccc2nc(SCC(=O)NCc3ccccc3)[nH]c2c1", "Potency": "inconclusive: 20.6 µM [cytotoxic, single point]"}
    ]}
  ]
}
